Data reported in the supplement of paper PMC12823440, “Inhibitors supercharge kinase turnover through native proteolytic circuits” (Nature, 2025).
This is one part of the list. Hit calls seldom repeat between salt and free forms of one compound.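 Kinases, fused to nanoluciferase, were expressed in K562 cells; luminescence was measured every 4 h from 2 to 18 h as percent of control (DMSO = 100%, positive control = 0%). A time point is decreased if signal falls significantly (2 sigma). Hits were called by the authors by a rule that is not shown; the count of time points alone does not decide it.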

The chains behind the UniProt entries cited, without tags or fusion partners. Where a name states a change or a piece, a line headed by the entry shows the natural chain unless it says otherwise.
UniProt Q92630: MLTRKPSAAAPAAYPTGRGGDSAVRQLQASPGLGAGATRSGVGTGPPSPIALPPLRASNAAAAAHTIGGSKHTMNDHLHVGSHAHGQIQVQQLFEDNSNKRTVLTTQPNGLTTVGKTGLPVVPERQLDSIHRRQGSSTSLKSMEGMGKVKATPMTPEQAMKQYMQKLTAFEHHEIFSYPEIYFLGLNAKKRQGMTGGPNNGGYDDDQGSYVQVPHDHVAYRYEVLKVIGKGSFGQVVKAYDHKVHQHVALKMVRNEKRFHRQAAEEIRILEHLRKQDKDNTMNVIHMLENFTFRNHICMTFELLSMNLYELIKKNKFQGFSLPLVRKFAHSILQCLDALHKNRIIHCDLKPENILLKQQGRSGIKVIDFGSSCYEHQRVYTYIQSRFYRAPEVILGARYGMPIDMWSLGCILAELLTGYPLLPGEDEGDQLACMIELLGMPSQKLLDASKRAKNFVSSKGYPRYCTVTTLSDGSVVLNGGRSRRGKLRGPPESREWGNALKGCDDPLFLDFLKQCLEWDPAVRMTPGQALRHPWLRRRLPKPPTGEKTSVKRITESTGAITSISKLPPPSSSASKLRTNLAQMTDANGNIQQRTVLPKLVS

Target: DYRK2 (UniProt Q92630)
Assay: kinase-Nluc reporter destabilization hit call (1 = scored as downregulated) (binary); higher = compound decreases kinase abundance
Settings: K562; 2-18 h

kinase-Nluc reporter destabilization hit call, inactive:
CC(C)c1ccc2oc3nc(N)c(C(=O)O)cc3c(=O)c2c1 [Amlexanox] (10 µM) 0, NS(=O)(=O)c1ccc(Nc2nc(OCC3CCCCC3)c3[nH]cnc3n2)cc1 (10 µM) 0, Cn1nc(C(C)(C)C)cc1NC(=O)Nc1ccc(Oc2ccncc2)cc1 (10 µM) 0, COc1ccc(F)c(F)c1C(=O)c1cnc(NC2CCN(S(C)(=O)=O)CC2)nc1N (2.5 µM) 0, COc1cc(C(=O)NC2CCN(C)CC2)ccc1Nc1ncc2c(n1)N(C1CCCC1)CC(F)(F)C(=O)N2C (10 µM) 0, CCN1C(=O)N(c2c(F)c(OC)cc(OC)c2F)Cc2cnc3[nH]c(CN4CCOCC4)cc3c21 [Pemigatinib] (10 µM) 0, COc1cc(Oc2ccnc3cc(OC)c(OC)cc23)ccc1NC(=O)NC(C)c1nccs1 (configuration not stated) (2.5 µM) 0, C=CC(=O)N1C[C@H](Nc2ncnc3[nH]ccc23)CC[C@@H]1C [Ritlecitinib] (10 µM) 0, CC(C)(C)S(=O)(=O)c1cc2c(Nc3ccc4scnc4c3)ncnc2cc1OCCO (2.5 µM) 0, O=C(NOC[C@H](O)CO)c1ccc(F)c(F)c1Nc1ccc(I)cc1F (2.5 µM) 0, Cc1cccc([C@@H](CO)NC(=O)[C@@H](C)N2Cc3ccc(-c4nc(NC5CCOCC5)ncc4Cl)cc3C2=O)c1 [ERK1/2 inhibitor 1] (10 µM) 0, CNC(=O)c1cc(Oc2ccc(NC(=O)Nc3cc(C(C)(C)C)nn3-c3ccc4ncccc4c3)c(F)c2)ccn1 [Rebastinib] (2.5 µM) 0
